Laboratory results from PubChem BioAssay AID504834 (National Center for Advancing Translational Sciences (NCATS), 2011).
Hit rate of the full screen: of about 320,000 compounds, about 22,000 (6.9%) were called active. Inconclusive results, whose numbers are uncertain, are shown with a selection of clear calls. Calls come from the whole dose curve; as a rule, active = well fitted inhibition curve with a large enough effect; inconclusive = small, poorly fitted or top-dose-only effect, or another doubt; inactive = no such curve, though single readings can be large or run the other way. A potency beside an inconclusive call is a rough fit, not a confirmed value. Where a structure was tested more than once in an assay, its records may differ in their call.

Test: Primary qHTS for delayed death inhibitors of the malarial parasite plastid, 96 hour incubation
Details: P. falciparum luciferase reporter growth; series mostly up to 28.7 µM
In short: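 P. falciparum expressing integrated firefly luciferase grown in erythrocytes (2% hematocrit, 0.05% parasitemia final) with compounds for 96 hours at 37 C, 5% CO2. Growth inhibition read as loss of luminescence after adding luciferase detection reagent.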
Potency is the fitted concentration of half-maximal effect.

SMILES | Potency
CC(C)(C)[C@H]1CCC(=O)N([C@H](CC#N)Cc2ccccc2)CC1 | inconclusive: 18.5 µM [inhibitor, single point]
COc1ccc2c(CC(=O)NCCN3C(=O)S/C(=C\c4cccnc4)C3=O)coc2c1 | inconclusive: 13.1 µM [inhibitor, partial curve, poor fit]
CCN(CC)S(=O)(=O)c1cc(NC(=O)C(C)N(C)CC(=O)Nc2c(C)cccc2C)ccc1C (stereo not drawn) | active: 11.7 µM
CN(C)c1ccc(N=c2sc3ccccc3n2C)cc1 | inconclusive: 4.65 µM [inhibitor, single point]
Cc1cc(-c2nn(-c3ccccc3F)cc2CN2CCC(O)CC2)c(C)s1 | inconclusive: 18.5 µM [inhibitor, single point]
CC(Oc1ccccc1)C(=O)N=C1SC2CS(=O)(=O)CC2N1CCc1ccccc1 (stereo not drawn) | inconclusive: 18.5 µM [inhibitor, single point]
CCN(CC)c1ccc(S(=O)(=O)N2CCOCC2)cc1NC(=O)CSC(=S)N1CCCC1 | active: 10.4 µM
NCc1c(O)ccc2ccccc12 | inconclusive: 9.28 µM [inhibitor, single point]
Cc1onc(-c2ccccc2)c1C(=O)N1CCN(C)CC1 | inactive
Nc1ccc2c(c1)C(=O)C(=O)c1ccccc1-2 | inconclusive: 10.4 µM [inhibitor, single point]
CCOC(=O)c1cccnc1SCC(=O)NC(C)CC (stereo not drawn) | inconclusive: 6.57 µM [inhibitor, partial curve]
CCN(CC)CCNC1=NCCn2c1cc1cc(OC)ccc12 | inconclusive: 4.65 µM [inhibitor, partial curve, poor fit]
CCC(=O)NCCSc1c[nH]c2ccccc12 | inconclusive: 0.0928 µM [inhibitor, full curve, poor fit]
O=C(C1=COCCO1)N1CCN(C(c2ccccc2)c2ccccc2)CC1 | inconclusive: 4.15 µM [inhibitor, partial curve]
Cc1nnc2c(NCC(C)c3ccccc3)nc3ccccc3n12 (stereo not drawn) | inconclusive: 4.15 µM [inhibitor, partial curve, poor fit]
N/C(=N\OC(=O)c1ccccc1)c1ccccn1 | inconclusive: 2.33 µM [inhibitor, single point]
CN(CC(=O)Nc1ccc(F)cc1)C(=O)CNC(=O)C1CCCCC1 | inactive
O=C(NNC(=O)c1ccc(-n2cncn2)c([N+](=O)[O-])c1)c1ccccc1 | inconclusive: 18.5 µM [inhibitor, single point]
C[C@@H](NC(=O)C1(c2ccccc2)CCN(C(=O)OC(C)(C)C)CC1)C(=O)N[C@@H](C(=O)O)c1ccccc1 | inactive
Cc1c(C(=O)Nc2ccc3c(c2)OCO3)sc2nc(-c3ccccc3)cn12 | inconclusive: 9.28 µM [inhibitor, partial curve, poor fit]
O=C(O)C(CC1CCCCC1)N1CCS(=O)(=O)CC1 (stereo not drawn) | inconclusive: 4.15 µM [inhibitor, single point]
COc1ccc(NC(=S)NCC2CCN(c3ccc(OC)cc3)C2)cc1 (stereo not drawn) | inconclusive: 11.7 µM [inhibitor, single point]
O=C(Nc1ccccc1-c1ccccc1)NC1CC2CCCC(C1)N2CCc1ccccc1 (stereo not drawn) | inconclusive: 9.28 µM [inhibitor, single point]

SMILES | Potency
O=C(NCCCn1ccnc1)/C(=C/c1ccc(Cl)cc1)NC(=O)c1ccccc1 | inconclusive: 9.28 µM [inhibitor, partial curve, poor fit]
Cc1ccc(C(=O)N(CCN2CCCCC2)CC2CCCN(C3CCCC3)C2)s1 (stereo not drawn) | inactive
Cc1c(NC(=O)NC2CCCCC2)cccc1[N+](=O)[O-] | inactive
CCCOC(=S)NC(=O)c1sc2ccccc2c1Cl | inconclusive: 2.94 µM [inhibitor, full curve, poor fit]
CCN(CC)S(=O)(=O)c1ccc(N2CCOCC2)c(NC(=O)C2CCCC2)c1 | active: 11.7 µM
CC(=O)Nc1ccc(S(=O)(=O)N2CCN(c3cnn(C)c(=O)c3Cl)CC2)cc1 | inactive
CC(NC(=O)CSc1nc2sc3c(c2c(=O)n1-c1ccccc1)CCCC3)c1ccccc1 (stereo not drawn) | inactive
O=C(NN=C1CCCCC1)c1ccccc1OCc1ccc(F)cc1 | inconclusive: 10.4 µM [inhibitor, partial curve, poor fit]
CCOc1cc(S(=O)(=O)N2CCN(CC)CC2)ccc1Cl | inconclusive: 11.7 µM [inhibitor, single point]
O=C(c1ccc(-n2cncn2)c([N+](=O)[O-])c1)N1CCN(c2cccc(Cl)c2)CC1 | inactive
O=C(Nc1nccs1)c1ccc(S(=O)(=O)N2CCOCC2)cc1 | inactive
CCOC(=O)C1CCCN(C(=O)c2cc(Nc3ccc(OC)cc3OC)nc3ccccc23)C1 (stereo not drawn) | inconclusive: 18.5 µM [inhibitor, single point]
COC(=O)CCc1c(C)c(C(=O)c2cc(OC)c(OC)c(OC)c2)c2ccccn12 | inconclusive: 11.7 µM [inhibitor, partial curve, poor fit]
CCN(CC)CCN1C(=O)C2C(C(=O)Nc3cccc(C)c3)C3C=CC2(O3)C1C(=O)NC1CCCC(C)C1C (stereo not drawn) | inconclusive: 10.4 µM [inhibitor, single point]
CNc1ccccc(C(=O)/C=C/c2ccccc2OC)c1=O | inconclusive: 13.1 µM [inhibitor, single point]
CC(C)CCN=Cc1c(O)n(-c2ccccc2)c(=O)c2ccccc12 | inconclusive: 18.5 µM [inhibitor, single point]
CC(=O)N(CC(O)CO)c1c(I)c(C(=O)NCC(O)CO)c(I)c(C(=O)NCC(O)CO)c1I (stereo not drawn) | active: 13.5 µM
O=C(NC1CCCCC1)c1ccc(N2CCOCC2)c([N+](=O)[O-])c1 | inconclusive: 9.28 µM [inhibitor, single point]
CC(C)c1cc(-c2cc(C(=O)NCc3ccccc3)on2)nc(NCC2CC2)n1 | inactive
N#Cc1c(=O)c2nc(NCCCO)ncc2n2c(=O)c3ccccc3[nH]c12 | inconclusive: 5.86 µM [inhibitor, partial curve]
O=Cc1ccc(-c2ccccc2C(=O)O)o1 | inactive
C/C=C\C=C\C(=O)N1CC2(CC(c3cccc(NC(=O)COc4ccc(Cl)cc4)c3)=NO2)C[C@H]1C(N)=O (stereo partly drawn) | active: 10.4 µM
CCN(CC)CCNC(=O)c1cn(CC)c2ccc(S(=O)(=O)N3CCc4ccccc4C3)cc2c1=O | active: 1.04 µM

Quoted at random: 4 records from the list.
SMILES | Potency
O=C(NCCCn1ccnc1)/C(=C/c1ccc(Cl)cc1)NC(=O)c1ccccc1 | inconclusive: 9.28 µM [inhibitor, partial curve, poor fit]
CCN(CC)CCN1C(=O)C2C(C(=O)Nc3cccc(C)c3)C3C=CC2(O3)C1C(=O)NC1CCCC(C)C1C (stereo not drawn) | inconclusive: 10.4 µM [inhibitor, single point]
CCOC(=O)c1cccnc1SCC(=O)NC(C)CC (stereo not drawn) | inconclusive: 6.57 µM [inhibitor, partial curve]
Cc1cc(-c2nn(-c3ccccc3F)cc2CN2CCC(O)CC2)c(C)s1 | inconclusive: 18.5 µM [inhibitor, single point]

(continued)

SMILES | Potency
Cc1ccc(S(=O)(=O)N2CCc3ccccc3C2CN2C(=O)c3ccccc3C2=O)cc1 (stereo not drawn) | inconclusive: 16.5 µM [inhibitor, single point]
NC1=NC[C@H](c2ccccc2)N1CCCCC1CCCCC1 | inconclusive: 18.5 µM [inhibitor, single point]
COc1ccc(CCNC(=O)CSc2nc(C)nc3sccc23)cc1OC | inactive
COc1ccccc1CNC(=O)C1CCN(S(=O)(=O)c2ccc3c(c2)OCCO3)CC1 | inactive
CC(C)c1ccc(N2C=Nc3ccc(C(C)C)cc3C2)cc1 | inconclusive: 11.7 µM [inhibitor, single point]
CCOC(=O)C1=C(C)Nc2[nH]c(=O)[nH]c(=O)c2C1c1cccs1 (stereo not drawn) | inactive
CNc1nc(Oc2ccc(C(=O)OC)cc2)nc(SC)n1 | inactive
CCOC(=O)C1=C(C)N=c2s/c(=C/c3ccc(OCC(=O)O)cc3)c(=O)n2C1c1ccc(OC)cc1OC (stereo not drawn) | active: 1.17 µM
CN1CCN(c2ccc(Cl)cc2NC(=O)CN2C(=O)NC(C)(c3ccccc3)C2=O)CC1 (stereo not drawn) | inconclusive: 4.65 µM [inhibitor, partial curve, poor fit]
CC(=O)N1c2ccc(S(=O)(=O)N3CCCC(C(=O)NCc4ccc(Cl)cc4)C3)cc2CC1C (stereo not drawn) | inconclusive: 3.7 µM [inhibitor, partial curve, poor fit]
Cc1nn(CC(=O)OCC(=O)Nc2ccccc2[N+](=O)[O-])c(C)c1[N+](=O)[O-] | inactive
COc1ccc(S(=O)(=O)NC(C)C(=O)Nc2ccccc2)cc1Cl (stereo not drawn) | inconclusive: 11.7 µM [inhibitor, single point]
COc1ccc(OC)c(NC(=O)NNC(=O)CCCOc2ccc(Cl)cc2C)c1 | inconclusive: 18.5 µM [inhibitor, single point]
CN(C)C1(CNC(=O)C2CCN(S(=O)(=O)c3cccc(C(F)(F)F)c3)CC2)CCCCC1 | inconclusive: 14.7 µM [inhibitor, single point]
CC(=O)Nc1ccc(SCC(=O)c2cc(C)n(-c3ccccc3)c2C)cc1 | inactive
NS(=O)(=O)c1ccc(CCNC(=O)c2cc(-c3ccco3)nc3ccccc23)cc1 | inconclusive: 13.1 µM [inhibitor, partial curve, poor fit]
COc1ccc(CCC(=O)Nc2ccc(N3CCOCC3)cc2)cc1 | inactive
Cc1nn(-c2ccccn2)c2nc(-c3cccs3)cc(C(=O)NCc3ccco3)c12 | active: 10.4 µM
CCCOc1ccc(C2C(=O)N(C3CCCCCC3)CC(=O)N2Cc2ccco2)cc1OC (stereo not drawn) | inconclusive: 10.4 µM [inhibitor, single point]
COCCNC(=O)COc1cccc2c1OC(C)(C)C2 | inactive
O=C(NCCN1C(=O)S/C(=C\c2cccnc2)C1=O)c1ccc(S(=O)(=O)N2CCCC2)cc1 | inconclusive: 11.7 µM [inhibitor, single point]
O=C(Cc1ccccc1)N/N=C/c1cc(Br)cc(Cl)c1O | inconclusive: 8.28 µM [inhibitor, partial curve, poor fit]
